These are yes or no findings as the source states them, for the method shown. In cells and extracts the contact can be indirect. A result given as binding can be weak or reduced; the word gives no strength.
Key:
[1] = biological target: Flag-PntP1 (Flag-tagged Pointed P1) (Drosophila) (UniProt P51023); assay: co-IP; two tagged proteins co-expressed in Drosophila S2 cells; 1% NP-40 lysis buffer (50 mM Tris-Cl, pH 8.0, 150 mM NaCl); IP overnight at 4°C with anti-HA, anti-Myc or anti-Flag antibody, protein A/G agarose beads; Western blot
[2] = biological target: Flag-PntP1 (Flag-tagged Pointed P1) (Drosophila) (UniProt P51023); assay: co-IP; two of the three tagged proteins co-expressed in S2 cells; graded concentrations (150mM to 1200mM) of NaCl in the 1% NP-40 lysis buffer (S7C-E Fig; lanes with two proteins of S7F Fig, % co-IP quantified from band intensities, n = 3)

Amino acid sequences for entries named in this document (tags omitted). A change or cut given only in a name is not applied to a line headed by its entry.
UniProt P51023: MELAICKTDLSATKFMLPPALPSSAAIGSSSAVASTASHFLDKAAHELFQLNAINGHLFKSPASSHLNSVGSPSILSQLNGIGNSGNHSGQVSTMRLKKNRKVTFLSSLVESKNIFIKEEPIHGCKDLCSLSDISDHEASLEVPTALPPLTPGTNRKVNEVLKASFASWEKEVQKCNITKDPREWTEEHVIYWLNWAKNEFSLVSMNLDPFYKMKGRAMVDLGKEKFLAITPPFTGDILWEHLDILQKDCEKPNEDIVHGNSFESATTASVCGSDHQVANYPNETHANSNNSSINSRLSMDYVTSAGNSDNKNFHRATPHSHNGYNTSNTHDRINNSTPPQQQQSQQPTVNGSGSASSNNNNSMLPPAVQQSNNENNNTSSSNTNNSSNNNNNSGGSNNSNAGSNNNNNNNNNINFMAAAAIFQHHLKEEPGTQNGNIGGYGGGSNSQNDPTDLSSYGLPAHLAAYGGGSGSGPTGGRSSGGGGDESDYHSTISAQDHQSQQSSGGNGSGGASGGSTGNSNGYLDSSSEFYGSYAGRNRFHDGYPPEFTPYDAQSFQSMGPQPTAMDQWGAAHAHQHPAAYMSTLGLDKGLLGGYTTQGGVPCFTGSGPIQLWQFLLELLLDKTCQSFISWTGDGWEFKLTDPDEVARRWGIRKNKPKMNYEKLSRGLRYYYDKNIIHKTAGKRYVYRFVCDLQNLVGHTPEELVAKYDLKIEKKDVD
UniProt Q9VQ56: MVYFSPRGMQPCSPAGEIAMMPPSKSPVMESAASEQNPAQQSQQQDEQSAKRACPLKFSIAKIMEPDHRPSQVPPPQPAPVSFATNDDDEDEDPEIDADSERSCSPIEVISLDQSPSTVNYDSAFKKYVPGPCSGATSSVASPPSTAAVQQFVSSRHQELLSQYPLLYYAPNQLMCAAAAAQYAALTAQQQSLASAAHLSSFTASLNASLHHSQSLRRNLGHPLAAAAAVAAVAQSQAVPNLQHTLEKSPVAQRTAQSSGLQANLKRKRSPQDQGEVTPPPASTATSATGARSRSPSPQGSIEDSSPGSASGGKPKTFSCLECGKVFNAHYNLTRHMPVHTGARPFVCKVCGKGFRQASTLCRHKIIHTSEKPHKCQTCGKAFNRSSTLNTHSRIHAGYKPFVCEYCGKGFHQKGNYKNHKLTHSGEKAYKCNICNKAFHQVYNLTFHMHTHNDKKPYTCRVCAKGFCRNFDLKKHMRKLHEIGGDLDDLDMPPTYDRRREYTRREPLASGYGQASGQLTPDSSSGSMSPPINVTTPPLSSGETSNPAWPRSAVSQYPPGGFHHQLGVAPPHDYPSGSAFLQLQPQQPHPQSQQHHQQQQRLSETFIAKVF

Myc-Erm (Myc-tagged Earmuff) (from UniProt Q9VQ56 1-611)
binding [1]: binds | binding [2]: binds

— publication PMC7895384
